Changes are numbered by the printed parent chain. These are yes or no findings as the source states them, for the method shown. For some assays here: Where a sequence is shown, tags or fusion partners need not be part of it.
Key:
[1] = biological target: T1, His6-DCB^BIG1 Gln200Glu (human) (UniProt Q9Y6D6); experiment: pull-down; Ni-NTA beads preloaded with His6-tagged DCB^BIG1 variants mixed with 1 nM GST-Arl1^GMP-PNP in 500 μl buffer C plus 5 mM MgCl2 and 40 mM imidazole; SDS-PAGE, Coomassie; both purified
T1 sequence: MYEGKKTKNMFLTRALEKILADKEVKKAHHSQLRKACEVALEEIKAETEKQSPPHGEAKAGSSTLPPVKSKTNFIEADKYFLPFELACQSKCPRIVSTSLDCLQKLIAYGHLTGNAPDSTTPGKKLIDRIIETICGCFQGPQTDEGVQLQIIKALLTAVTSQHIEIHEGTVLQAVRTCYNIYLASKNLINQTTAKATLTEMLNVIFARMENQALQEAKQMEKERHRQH

By UniProt entry, the sequences of proteins in these tests, tags left out. Where a name states a change or a piece, a line headed by the entry shows the natural chain unless it says otherwise. Residues count along the entry.
UniProt P40616, residues 15-181: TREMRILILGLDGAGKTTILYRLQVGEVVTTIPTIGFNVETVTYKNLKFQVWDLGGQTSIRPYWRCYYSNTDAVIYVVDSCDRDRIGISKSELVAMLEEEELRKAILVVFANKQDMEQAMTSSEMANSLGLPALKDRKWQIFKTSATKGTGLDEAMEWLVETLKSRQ
UniProt Q92538, residues 1-566: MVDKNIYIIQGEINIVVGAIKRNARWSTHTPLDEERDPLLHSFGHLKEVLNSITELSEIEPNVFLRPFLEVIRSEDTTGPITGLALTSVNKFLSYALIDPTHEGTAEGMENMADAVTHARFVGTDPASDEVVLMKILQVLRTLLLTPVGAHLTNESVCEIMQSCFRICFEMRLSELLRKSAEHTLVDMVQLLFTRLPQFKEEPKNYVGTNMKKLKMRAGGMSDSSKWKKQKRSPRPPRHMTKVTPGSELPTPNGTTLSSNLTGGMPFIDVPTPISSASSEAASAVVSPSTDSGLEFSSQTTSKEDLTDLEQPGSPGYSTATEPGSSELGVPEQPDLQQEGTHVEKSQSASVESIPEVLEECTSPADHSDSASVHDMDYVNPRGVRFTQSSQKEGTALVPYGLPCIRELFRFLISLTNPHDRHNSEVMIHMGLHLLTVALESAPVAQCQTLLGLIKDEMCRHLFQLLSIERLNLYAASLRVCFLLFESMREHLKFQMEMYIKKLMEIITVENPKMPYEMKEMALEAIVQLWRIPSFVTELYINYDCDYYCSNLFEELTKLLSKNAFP

[2] = biological target: T2, His6-DCB^BIG1 Leu156Asp (human) (UniProt Q9Y6D6); experiment: as above
T2 sequence: T1 sequence with L156D, E200Q

[3] = biological target: T3, His6-DCB^BIG1 Lys105Asp (human) (UniProt Q9Y6D6); experiment: as above
T3 sequence: T1 sequence with K105D, E200Q

[4] = biological target: T4, His6-DCB^BIG1 Tyr109Lys (human) (UniProt Q9Y6D6); experiment: as above
T4 sequence: T1 sequence with Y109K, E200Q

[5] = biological target: GST-Arl1^ΔN14 (human Arl1 residues 15–181), loaded with GMP-PNP or GDP (human) (UniProt P40616); experiment: pull-down; 2 nM GST-Arl1 loaded with GMP-PNP or GDP mixed with 2 nM His6-tagged protein in 500 μl buffer C (20 mM Tris-HCl, 110 mM KCl, 1 mM DTT, 0.1% Triton X-100) plus 5 mM MgCl2, 4°C 30 min, captured on glutathione-Sepharose; SDS-PAGE, Coomassie; both purified

Substance: GST-Arl1^ΔN14 (human Arl1 residues 15–181), loaded with GMP-PNP or GDP (from UniProt P40616 15-181) (domain or fragment)
- binding [1]: no binding (tested: 1 nM GST-Arl1^GMP-PNP)
- binding [2]: no binding (tested: 1 nM GST-Arl1^GMP-PNP)
- binding [3]: no binding (tested: 1 nM GST-Arl1^GMP-PNP)
- binding [4]: no binding (tested: 1 nM GST-Arl1^GMP-PNP)

Substance: His6-tagged GBF1 N-terminal fragment (1–566) (from UniProt Q92538 1-566) (domain or fragment)
- binding [5]: no binding (tested: 2 nM of the His6-tagged protein)
